In the supplement of paper PMC8975748:
± gives the standard deviation of the averaged measurements. This is one part of the list. These are raw signals, not scaled to a control.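 The yeast community starts from one strain carrying four plasmids, each with an amino-acid or uracil synthesis gene and a fluorescent protein. Random plasmid loss creates mixed prototroph and auxotroph subpopulations. Cells were fixed and counted by automated confocal fluorescence imaging, and DMSO-treated wells served as the vehicle reference.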

Each molecule was assayed on Saccharomyces cerevisiae BY4741 SeMeCo community (assay: imaged cell count per well (cells); higher = more cells). Conditions: 10 µM; 24 h; SM minimal medium.
Procedure: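 Same SeMeCo high-content imaging drug screen: Selleck FDA-approved drugs at 10 µM, 24 h in SM medium, 384-well plates, 3 replicates.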
For Cc1cc(C)nc(NS(=O)(=O)c2ccc(N)cc2)n1 [Sulfamethazine], the “imaged cell count per well” value was 23600 ± 4500. C[C@@H](O)[C@H]1C(=O)N2C(C(=O)O)=C(S[C@@H]3CN[C@H](C(=O)N(C)C)C3)[C@H](C)[C@H]12 [Meropenem] was tested, and the “imaged cell count per well” value was 25000 ± 9900. In the case of O=S(=O)(O)CCCCOC[C@H]1O[C@@H]2O[C@H]3[C@H](O)[C@@H](O)[C@@H](O[C@H]4[C@H](O)[C@@H](O)[C@@H](O[C@H]5[C@H](O)[C@@H](O)[C@@H](O[C@H]6[C@H](O)[C@@H](O)[C@@H](O[C@H]7[C@H](O)[C@@H](O)[C@@H](O[C@H]8[C@H](O)[C@@H](O)[C@@H](O[C@H]1[C@H](O)[C@H]2O)O[C@@H]8CO)O[C@@H]7COCCCCS(=O)(=O)O)O[C@@H]6COCCCCS(=O)(=O)O)O[C@@H]5COCCCCS(=O)(=O)O)O[C@@H]4COCCCCS(=O)(=O)O)O[C@@H]3COCCCCS(=O)(=O)O, the “imaged cell count per well” value is reported as 22600 ± 6700. With C[C@@H](O)[C@H]1C(=O)N2C(C(=O)OCOC(=O)C(C)(C)C)=C(SC3CN(C4=NCCS4)C3)[C@H](C)[C@H]12 [Tebipenem Pivoxil] the “imaged cell count per well” value was 24700 ± 6200. In the case of O=C1[C@@H]2[C@H]3CC[C@H](C3)[C@@H]2C(=O)N1C[C@@H]1CCCC[C@H]1CN1CCN(c2nsc3ccccc23)CC1 [lurasidone], the “imaged cell count per well” value is reported as 30100 ± 4200. With CC(=O)N[C@H]1[C@H]([C@H](O)[C@H](O)CO)OC(C(=O)O)=C[C@@H]1NC(=N)N [Zanamivir] the “imaged cell count per well” value was 26700 ± 2000. In the case of CCn1cc(C(=O)O)c(=O)c2cc(F)c(N3CCNCC3)nc21 [Enoxacin Sesquihydrate], the “imaged cell count per well” value is reported as 26900 ± 5700. In the case of O=C(O)c1ccccc1C(=O)Nc1ccc(S(=O)(=O)Nc2nccs2)cc1 [Phthalylsulfathiazole], the “imaged cell count per well” value is reported as 27700 ± 4000.
